These are yes or no findings as the source states them, for the method shown. In cells and extracts the contact can be indirect. These calls come from enrichment with a bait or labelling near it, and not all partners need be listed. For some of these results: Tags and fused reporters may be left off the sequences shown.

Test [1] concerns the target T1, Cbc1, split-tag bait (second purification step) (S. pombe) (UniProt O14253).
T1 sequence: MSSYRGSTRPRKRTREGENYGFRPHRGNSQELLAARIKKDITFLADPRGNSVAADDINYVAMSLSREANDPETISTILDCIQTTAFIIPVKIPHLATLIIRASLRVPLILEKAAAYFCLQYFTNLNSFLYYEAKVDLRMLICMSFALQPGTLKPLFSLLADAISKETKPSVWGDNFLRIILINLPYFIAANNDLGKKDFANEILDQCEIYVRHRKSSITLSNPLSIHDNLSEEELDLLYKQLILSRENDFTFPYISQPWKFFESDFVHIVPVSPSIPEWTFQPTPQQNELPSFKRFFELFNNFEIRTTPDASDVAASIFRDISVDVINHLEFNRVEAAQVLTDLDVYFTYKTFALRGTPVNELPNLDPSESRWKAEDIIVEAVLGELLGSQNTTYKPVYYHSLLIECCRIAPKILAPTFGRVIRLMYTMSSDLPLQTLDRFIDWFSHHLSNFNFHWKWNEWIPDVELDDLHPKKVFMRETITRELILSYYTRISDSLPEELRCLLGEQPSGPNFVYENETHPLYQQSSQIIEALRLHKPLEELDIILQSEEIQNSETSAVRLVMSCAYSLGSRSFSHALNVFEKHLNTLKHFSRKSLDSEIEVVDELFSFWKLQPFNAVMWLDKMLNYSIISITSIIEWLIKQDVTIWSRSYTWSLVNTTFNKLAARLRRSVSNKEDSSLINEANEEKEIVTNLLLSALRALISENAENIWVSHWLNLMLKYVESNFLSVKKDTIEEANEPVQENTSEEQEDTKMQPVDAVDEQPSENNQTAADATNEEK
The test can be described thus: affinity purification with mass spectrometry; split-tag purification: first step by Mtl1, second step by Iss10, Cbc1 or Pab2; from S. pombe cell extract.

Test [2] concerns the target T2, Pab2, split-tag bait (second purification step) (S. pombe) (UniProt O14327).
T2 sequence: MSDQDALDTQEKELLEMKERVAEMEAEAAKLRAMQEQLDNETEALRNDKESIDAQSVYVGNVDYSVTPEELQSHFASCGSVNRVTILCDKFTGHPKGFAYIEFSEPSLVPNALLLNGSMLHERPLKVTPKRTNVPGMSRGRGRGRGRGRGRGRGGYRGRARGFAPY
The description is as above.

The target of another test is Mtl1–FTP (S. pombe). The test can be described thus: affinity purification with mass spectrometry; tandem affinity purification of an FTP-tagged bait from S. pombe cell extract (IgG beads, TEV cleavage with Benzonase, anti-Flag beads, Flag peptide elution); 50 mM HEPES pH 7.0, 100 mM NaCl, 1.5 mM MgCl2, 0.15% NP-40; MALDI-TOF of single bands and LC-MS/MS of the whole eluate; wild-type cells, also red1Δ and rmn1Δ backgrounds.

Test [3] addresses Mtl1, split-tag bait (first purification step) (S. pombe). The test can be described thus: affinity purification with mass spectrometry; split-tag purification: first step by Mtl1, second step by Iss10, Cbc1 or Pab2; from S. pombe cell extract.

As for Rmn1 (S. pombe (endogenous)), the binding result in test [1] and in test [2] was “binds” each time.

For the molecule Red5 (S. pombe (endogenous)), the binding result in test [1] and in test [2] was “binds” throughout.

B1: mRNA cleavage factor complex subunit SPBC660.15 (protein, UniProt O94432 1-474)
chain: MGGSDFEDDELFKDLYGEENEKKVESASGNQETSNVTPTKENEGYEELEKSGEAGAERTKENPFREEPGADFDRSGSDQQYSAEAEANQEDDLNETSQQAPDPSSYDIRGQALSSATWDNAEDGENSKNDNYNENQSALTGSGAMESNEDNAEETSPFNREDGKMFIGGLNWETTDDSLRDYFEQFGEVLDCTVMRDSTTGRSRGFGFLTFKNPKCVNEVMSKEHHLDGKIIDPKRAIPREEQEKTAKMFVGGVPGDCTEEEFRNFFNQFGRVLDATLMMDKDTGRPRGFGFVTYENESAVEATMSQPYITIHGKPVEVKRATPKASLRDSHDRHQHGYHGNANPYYAQNMNMYGGMTPAMMAQYYRQMQQYMEAMRNMPAAAGAVPYPQPVMPAGMADWQQQQQQGAAYFDPSKMNQGTGDGVPFSPSMPSGSSRGGYHGRNPGGPNRQRYRGRRDGRGGNTGGGHSFHPYRR
For B1, the binding entry in the test with Mtl1–FTP (S. pombe) is reported as “binds”.

B2: Cbc1, split-tag bait (second purification step) (protein, UniProt O14253 1-780)
chain: MSSYRGSTRPRKRTREGENYGFRPHRGNSQELLAARIKKDITFLADPRGNSVAADDINYVAMSLSREANDPETISTILDCIQTTAFIIPVKIPHLATLIIRASLRVPLILEKAAAYFCLQYFTNLNSFLYYEAKVDLRMLICMSFALQPGTLKPLFSLLADAISKETKPSVWGDNFLRIILINLPYFIAANNDLGKKDFANEILDQCEIYVRHRKSSITLSNPLSIHDNLSEEELDLLYKQLILSRENDFTFPYISQPWKFFESDFVHIVPVSPSIPEWTFQPTPQQNELPSFKRFFELFNNFEIRTTPDASDVAASIFRDISVDVINHLEFNRVEAAQVLTDLDVYFTYKTFALRGTPVNELPNLDPSESRWKAEDIIVEAVLGELLGSQNTTYKPVYYHSLLIECCRIAPKILAPTFGRVIRLMYTMSSDLPLQTLDRFIDWFSHHLSNFNFHWKWNEWIPDVELDDLHPKKVFMRETITRELILSYYTRISDSLPEELRCLLGEQPSGPNFVYENETHPLYQQSSQIIEALRLHKPLEELDIILQSEEIQNSETSAVRLVMSCAYSLGSRSFSHALNVFEKHLNTLKHFSRKSLDSEIEVVDELFSFWKLQPFNAVMWLDKMLNYSIISITSIIEWLIKQDVTIWSRSYTWSLVNTTFNKLAARLRRSVSNKEDSSLINEANEEKEIVTNLLLSALRALISENAENIWVSHWLNLMLKYVESNFLSVKKDTIEEANEPVQENTSEEQEDTKMQPVDAVDEQPSENNQTAADATNEEK
As for B2, in test [3], the binding entry was “binds”.

B3: Pab2, split-tag bait (second purification step) (protein, UniProt O14327 1-166)
chain: MSDQDALDTQEKELLEMKERVAEMEAEAAKLRAMQEQLDNETEALRNDKESIDAQSVYVGNVDYSVTPEELQSHFASCGSVNRVTILCDKFTGHPKGFAYIEFSEPSLVPNALLLNGSMLHERPLKVTPKRTNVPGMSRGRGRGRGRGRGRGRGGYRGRARGFAPY
Regarding B3, the binding result in test [3] was “binds”.

Values taken from article PMC4455066.
